# Data: patent US20050215520A1, “Complex of organic medicines and beta-cyclodextrin derivatives and its preparing process” (priority 2002, published 2005)
# Assay: Critical mole ratio or critical mass ratio of medicines and beta-cyclodextrin derivative (Table 1, examples)
# Type: physicochemical
# Settings: beta-cyclodextrin derivative (hydroxide propyl beta-cyclodextrin in the examples) to medicine; complex dissolves exactly in water to stable solution
# Protocol: The critical mole ratio or critical mass ratio in the present invention refers to the mole ratio and mass ratio when complex of organic medicine and beta-cyclodextrin derivatives prepared with the method of this invention is dissolved exactly in water of specified amount to form stable aqueous solution.
# The critical value of organic medicine and beta-cyclodextrin derivatives in the present invention, may be determined with the undermentioned unit test method.
# All kinds of mole ratio and mass ratio of the medicine and beta-cyclodextrin derivative is made into complex with expanding loose body according to the method of the present invention, then the set water is added into the a variety of compounding ratio of complex, and by observing properties of the solution, the compounding ratio of exactly dissolving in water and with stable property, acts as the critical mole ratio or critical mass ratio of the present invention.
# The critical mole ratio and critical mass ratio in the present invention may be determined with the undermentioned saturated solution method. […]
# From the results, it is seen that the results two measuring method of critical value are consistent generally. The critical mole ratio orcritical mass ratio of all kinds of medicines applied in the present invention, which measured in the experiments, is indicated in the following table 1: […]
compound,measurement,value
C(=C\c1ccccc1)/CN1CCN(C(c2ccccc2)c2ccccc2)CC1 [cinnarizine],Critical value mole ratio,3
